Results are given in words; binding and its absence hold for the method and conditions named. In cells and extracts the contact can be indirect. Binding can be weak; no strength is given. Where a sequence is shown, tags or fusion partners need not be part of it.

4 substances from PMC12678314 can be followed below.

Experiment [1] concerns the target T1, recombinant His-tagged NADPH-dependent thioredoxin reductase (NTRC) (Arabidopsis) (UniProt O22229).
T1 sequence: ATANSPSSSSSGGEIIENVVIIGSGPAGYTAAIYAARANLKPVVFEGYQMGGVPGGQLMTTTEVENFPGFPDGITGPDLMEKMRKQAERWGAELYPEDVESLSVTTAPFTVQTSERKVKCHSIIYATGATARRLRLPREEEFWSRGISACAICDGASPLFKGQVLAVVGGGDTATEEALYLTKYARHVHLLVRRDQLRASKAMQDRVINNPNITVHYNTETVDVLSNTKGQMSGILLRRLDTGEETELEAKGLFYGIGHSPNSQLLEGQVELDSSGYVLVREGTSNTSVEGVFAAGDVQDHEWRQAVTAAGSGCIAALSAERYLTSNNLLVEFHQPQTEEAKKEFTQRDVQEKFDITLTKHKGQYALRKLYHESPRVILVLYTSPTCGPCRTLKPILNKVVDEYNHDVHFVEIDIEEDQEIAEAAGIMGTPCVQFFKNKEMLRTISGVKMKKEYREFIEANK
Briefly: pull-down; 50 µg purified His-tagged bait incubated overnight at 4°C with chloroplast extracts (100 µg Chl, 1% dodecyl maltoside) in 25 mM Tris-HCl pH 7.8, 150 mM NaCl, 5 mM MgCl2, 10% glycerol; Ni-NTA agarose; six washes with 10 mM imidazole; eluted with 200 mM imidazole; immunoblot; only the target purified. In general terms: A western blot detects proteins with antibodies after separation by electrophoresis.

In experiment [2] the target is T2, recombinant His-tagged thioredoxin f1 (Arabidopsis) (UniProt Q9XFH8).
T2 sequence: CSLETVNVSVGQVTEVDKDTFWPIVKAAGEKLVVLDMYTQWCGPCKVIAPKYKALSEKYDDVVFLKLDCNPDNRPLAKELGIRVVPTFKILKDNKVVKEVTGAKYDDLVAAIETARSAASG
The description is as above.

Experiment [3] deals with T3, recombinant His-tagged thioredoxin m1 (Arabidopsis) (UniProt O48737).
T3 sequence: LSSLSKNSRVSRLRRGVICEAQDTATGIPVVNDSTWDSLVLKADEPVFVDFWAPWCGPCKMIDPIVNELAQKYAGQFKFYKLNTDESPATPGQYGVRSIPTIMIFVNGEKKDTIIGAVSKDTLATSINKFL
Described as above.

Experiment [4] addresses T4, Arabidopsis NADPH-dependent thioredoxin reductase (NTRC) fused to a half of YFP (BiFC) (Arabidopsis) (UniProt O22229).
T4 sequence: T1 sequence
Briefly: split reporter; halves of YFP (pVyNE, pVyCE) fused to the proteins, co-expressed in N. benthamiana leaves by Agrobacterium infiltration; confocal microscopy after 2 days in the dark.

The target in experiment [5] is T5, Arabidopsis thioredoxin f1 fused to a half of YFP (BiFC) (Arabidopsis) (UniProt Q9XFH8).
T5 sequence: T2 sequence
The experiment is described as above.

Experiment [6] addresses T6, thioredoxin m1 fused to a half of YFP (BiFC) (Arabidopsis) (UniProt O48737).
T6 sequence: T3 sequence
Described as above.

With “5-aminolevulinic acid dehydratase (ALAD), endogenous (enzyme)”, the binding result in experiment [1] and in experiment [2] was “binds” each time.
Regarding “glutamate-1-semialdehyde aminotransferase (GSAAT), endogenous (enzyme)”, the binding result in experiment [1], in experiment [2] and in experiment [3] was “binds” each time.
In the case of “light-harvesting chlorophyll a/b binding protein 1 of photosystem II (LHCB1), endogenous”, the binding entry in experiment [2] and in experiment [3] was “no binding” in each case.
In the case of “Arabidopsis GSAAT fused to a half of YFP (BiFC) (enzyme)”, the binding entry in experiment [4], in experiment [5] and in experiment [6] was “binds” in each case.
